42 sequences from article PMC7819943, “Rice protein-binding microarrays: a tool to detect cis-acting elements near promoter regions in rice” can be followed below.

Protein sequences, listed by entry. Tags and fused reporters are not part of them.
UniProt Q0JBA9, entry or part of it: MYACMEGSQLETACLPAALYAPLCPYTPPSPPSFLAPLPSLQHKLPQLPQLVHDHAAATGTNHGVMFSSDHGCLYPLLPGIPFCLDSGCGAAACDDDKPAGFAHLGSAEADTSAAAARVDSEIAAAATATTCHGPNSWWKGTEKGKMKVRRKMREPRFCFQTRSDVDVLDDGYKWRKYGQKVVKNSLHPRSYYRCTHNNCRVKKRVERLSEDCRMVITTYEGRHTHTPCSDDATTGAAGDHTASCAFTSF

This is one part of the list.

The assay addresses OsWRKY34 (Oryza sativa, UniProt Q0JBA9 1-250). Kind of assay: protein-binding microarray (RPBM); PBS, 2% BSA, 51.3 ng/ul salmon testes DNA, 50 uM zinc acetate, 200 nM TF, 25 C, 1 h; high values mean tight binding. Particulars: protein: recombinant; tags: N-terminal polyhistidine and DsRed monomer fusion (pET32a); label: CyDye5-dUTP incorporated in the synthesized complementary strand; 3' TTTTT single-stranded linker to array surface; dsDNA, one strand shown. In outline:
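Transcription factors were each fused at the N-terminus to a polyhistidine tag plus DsRed and expressed in E. coli BL21-CodonPlus before Ni–NTA purification. Binding to a double-stranded custom Agilent array was carried out with 200 nM protein at 25 °C for 1 h in PBS, 2% BSA, salmon testes DNA and 50 µM zinc acetate. The binding signal is per-feature fluorescence intensity, in arbitrary units, on an Axon 4000B scanner.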
For the sequence “TTAATTGTTTTTGGGTCCAATCTTCTTTTTTTTTTGACATCGGAGTCACCTAGTGCAG”, the binding signal is 15300 fluorescence intensity (a.u.).

Regarding “GACCTGGGCATGGGGAGGGAGTACTGGTCACCTTCACCACCGGAGTCACCTAGTGCAG”, the binding signal is 10600 fluorescence intensity (a.u.).

On to “GACCATCTCGCGTCGCTCCTCCGGCCATCTCTTCAGTTCCCGGAGTCACCTAGTGCAG”, for which the binding signal was 10200 fluorescence intensity (a.u.).

Take “CACTTTTGGTCAATATACACACTCCGTAATCACCCGGTACCGGAGTCACCTAGTGCAG”: the binding signal is 8180 fluorescence intensity (a.u.).

For “GCAGTTGGAATATTTTGTTTGGGTTCAGGTGCTACCATTGCGGAGTCACCTAGTGCAG”, the binding signal is 8210 fluorescence intensity (a.u.).

Turning to “TACTTAATCTGATGTTATCTAGCTATCTTACACGTTATTTCGGAGTCACCTAGTGCAG”, the binding signal is 8830 fluorescence intensity (a.u.).

Take “CTTATCTTTCTCCTCCAGCTTGCTACCTCGTCTTTCCTCCCGGAGTCACCTAGTGCAG”: the binding signal was 8180 fluorescence intensity (a.u.).

For “GTCGCCTATAAGTACCTGAGCCCGGGAGCACCGCTCTCTTCGGAGTCACCTAGTGCAG”, the binding signal is 8760 fluorescence intensity (a.u.).

As to “GTTTGGGGTGTCAAATGTCCGGTATTATAGTTTAAGTGGGCGGAGTCACCTAGTGCAG”, the binding signal is 8860 fluorescence intensity (a.u.).

For the sequence “GCCTCCACTTCCCTTTTGGCCGTCCATCTCTCCTCTCCTCCGGAGTCACCTAGTGCAG”, the binding signal is 11000 fluorescence intensity (a.u.).

Take “ACGCCGTCGCCGTCCATGTACCATCGATCGTGCACGATCCCGGAGTCACCTAGTGCAG”: the binding signal is 10800 fluorescence intensity (a.u.).

“TGTTTCTACCTGTTTTGTAGGGATGTGATGCGTCAGTTTTCGGAGTCACCTAGTGCAG”: the binding signal was 9440 fluorescence intensity (a.u.).

Turning to “TCTAAGATTTGCTCAATTGCTAGTCTGGTTCTGTTCCCGACGGAGTCACCTAGTGCAG”, the binding signal is 8140 fluorescence intensity (a.u.).

In the case of “TACTGTATAGTTGTTACAACTTCCTTTTTAATTATTCAATCGGAGTCACCTAGTGCAG”, the binding signal was 8060 fluorescence intensity (a.u.).

On to “CCTTTTGTACGTTTTTTTTTTCCTTTTTTCTTTCGAGAACCGGAGTCACCTAGTGCAG”, for which the binding signal was 10100 fluorescence intensity (a.u.).

For “CAATTTCGAGCTTCGTATCAGCATATGCTATTCCCTATTGCGGAGTCACCTAGTGCAG”, the binding signal was 10500 fluorescence intensity (a.u.).

Take “AGTTGGATAGTTACATATGAATTTTTTTTCTACCACATTCCGGAGTCACCTAGTGCAG”: the binding signal was 11700 fluorescence intensity (a.u.).

As to “ATATATATATATATATATATATATATATATATAGGGACAGCGGAGTCACCTAGTGCAG”, the binding signal is 9530 fluorescence intensity (a.u.).

Take “TAATTCCCTGCATCATGCCTCTATTCCGGTATGACTTGCTCGGAGTCACCTAGTGCAG”: the binding signal was 8690 fluorescence intensity (a.u.).

On to “ATGTACCGTTCACACCTATTTTATCACGTGTCCTTGTGCCCGGAGTCACCTAGTGCAG”, for which the binding signal was 9170 fluorescence intensity (a.u.).

Turning to “ATAAGAGCGGTGAAGTCGGCTGTGGCGTTGACCACCGACGCGGAGTCACCTAGTGCAG”, the binding signal was 11100 fluorescence intensity (a.u.).

Consider “TTTAGATCCCACTCCAAAATTTTACATGCTGTCACATCAACGGAGTCACCTAGTGCAG”, for which the binding signal is 8300 fluorescence intensity (a.u.).

On to “CCACTGTTCACTCTAATTTTGGCCGTCCGATCCTTCCGCGCGGAGTCACCTAGTGCAG”, for which the binding signal was 11400 fluorescence intensity (a.u.).

“TTTCACTTTGACTAGAAGCACATGTCATCGATTTTCCTTCCGGAGTCACCTAGTGCAG”: the binding signal was 9470 fluorescence intensity (a.u.).

Take “CGAATATGTATAAAAATCCTTGTCCCTGTCTATTTTACCTCGGAGTCACCTAGTGCAG”: the binding signal is 8390 fluorescence intensity (a.u.).

For “ATGCATCTTGCGCGCCCACGTACGCTCCATCATCTCTGGACGGAGTCACCTAGTGCAG”, the binding signal is 9110 fluorescence intensity (a.u.).

On to “CGCCCACCCACGCATCCATCCATCGATCGCAGCCAAATTCCGGAGTCACCTAGTGCAG”, for which the binding signal was 9430 fluorescence intensity (a.u.).

For the sequence “GCATCACTGCCTCACTGGCTCACTGCATCAGTTGATCGCCCGGAGTCACCTAGTGCAG”, the binding signal is 9160 fluorescence intensity (a.u.).

For the sequence “CCAGCCGGCACGCCGATCCGATCCGTCCCACCCACCCACGCGGAGTCACCTAGTGCAG”, the binding signal is 8460 fluorescence intensity (a.u.).

For “ACTACGACCAAATCACGCACCTTCGCTCTCTTTTCCATTGCGGAGTCACCTAGTGCAG”, the binding signal is 12700 fluorescence intensity (a.u.).

Regarding “ACTTTATATAGCTCACCTATCATGACAAACTCTATTAATTCGGAGTCACCTAGTGCAG”, the binding signal was 10800 fluorescence intensity (a.u.).

For “GCTTATCAAATTTTGCAGAGGACTTCTACCAATCCGGGCCCGGAGTCACCTAGTGCAG”, the binding signal is 9860 fluorescence intensity (a.u.).

Turning to “CTTCTTGATTGATTTATACTAACTGCGCACACACTTTATTCGGAGTCACCTAGTGCAG”, the binding signal was 8490 fluorescence intensity (a.u.).

With “TCAAACCTTCCAACGCGTGAAGAGTCCGCGTCCATACATACGGAGTCACCTAGTGCAG”, the binding signal is 8720 fluorescence intensity (a.u.).

For “CTGCCGCCTACAACAACCGCGCGCTATCCAATGGAGGAAACGGAGTCACCTAGTGCAG”, the binding signal is 8070 fluorescence intensity (a.u.).

In the case of “CCTTTCCGTTTTTCTCCATTTCGCTGACACGGCACGCGCACGGAGTCACCTAGTGCAG”, the binding signal is 8890 fluorescence intensity (a.u.).

With “ACAATCATACAATAATTCGTCGCTCCATTATTTGTGCCATCGGAGTCACCTAGTGCAG”, the binding signal was 8120 fluorescence intensity (a.u.).

On to “GCGAGCCGTATACATTGATATTCATGTAACTTTTACTTAACGGAGTCACCTAGTGCAG”, for which the binding signal is 8570 fluorescence intensity (a.u.).

Take “ATACCAACATTCTACCACCCCAGTTTCAAATTTTTTTTTTCGGAGTCACCTAGTGCAG”: the binding signal is 9580 fluorescence intensity (a.u.).

With “ATTCCCGGGCCCGCACGTCAGCGTCAGCAACCCAGCCCAACGGAGTCACCTAGTGCAG”, the binding signal is 8470 fluorescence intensity (a.u.).

In the case of “ATCATCAATTTTTTCGCATGGTACTAAGTACGTATGTTTTCGGAGTCACCTAGTGCAG”, the binding signal is 9010 fluorescence intensity (a.u.).

On to “CCCCTCACTCACATCACAGCCGCTTGTTCTCTTACCATTTCGGAGTCACCTAGTGCAG”, for which the binding signal was 11300 fluorescence intensity (a.u.).
